# Where “and” joins values, the source holds several entries; their conditions need not be identical. Equal values may be shown once. In all, about 340,000 compounds went through this assay and about 6,200 (1.8%) were called active. Inconclusive results, whose numbers are uncertain, are shown with a selection of clear calls. Calls come from the whole dose curve; as a rule, active = well fitted activation curve with a large enough effect; inconclusive = small, poorly fitted or top-dose-only effect; inactive = no such curve, though single readings can be large or run the other way. Potencies of inconclusive entries are doubtful fits and often do not repeat.
# Assay: A quantitative high throughput screen for small molecules that induce DNA re-replication in SW480 colon adenocarcinoma cells. For re-replication activation: % of control where 0% means no effect. Note: nearly all actives have a fitted effect of over 55% in size.
# Conditions: Hoechst DNA content imaging, 48 h; re-replication activation: at 46.1 µM (top of the series) unless noted
# Procedure, shortened: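 Image-based DNA-content assay: after two days of treatment, nuclei were labelled with the DNA dye Hoechst and imaged, and hits were compounds raising the count of nuclei showing high fluorescence intensity.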
# Potency is the fitted concentration of half-maximal effect.
Compound,Potency,re-replication activation
COc1ccc(NC(=O)/C(Cl)=C(/Cl)S(=O)Cc2ccc(Cl)cc2)cn1 (centres undefined),"inconclusive: 5.8 µM [activator, full curve, poor fit]",–
CC(=O)c1c(C)n([O-])c2cc(F)c(F)cc2[n+]1=O,"inconclusive: 29.1 µM [activator, single point]",–
Cc1c(C(=O)N(Cc2ccco2)Cc2cccs2)oc2ccccc12,inactive,–
COc1ccc(-c2cc(C(=O)N3CCN(c4cccc(C)c4C)CC3)c3ccccc3n2)cc1OC,"inconclusive: 32.6 µM [activator, partial curve, poor fit]",–
O=C(CCNc1ccc(F)cc1)c1ccco1,"inconclusive: 18.4 µM [activator, single point]",–
CCN1CC2=C(OC(N)=C(C#N)C2c2cccs2)/C(=C/c2cccs2)C1 (centres undefined),"inconclusive: 18.4 µM [activator, single point]",–
CCn1c2ccc(F)cc2c2nnc(NN)nc21,"inconclusive: 29.1 µM [activator, single point]",–
Cc1ccsc1C(=O)NCc1ccccc1Cl,"inconclusive: 0.731 µM [activator, full curve, poor fit]",–
O=C(COC(=O)c1ccccc1O)Nc1cccc2ccccc12,inactive,–
Cc1cccc(N=C2NN=C(c3c[nH]c4ccccc34)CS2)c1,"inconclusive: 20.6 µM [activator, partial curve, poor fit]",–
Cc1cccc(NC(=O)CN2C(=O)S/C(=C\c3cc(C)n(C)c3C)C2=O)c1,inactive,–
CCn1c(C)nnc1SCC(=O)Nc1nccs1,inactive,–
N#C/C(=C\Nc1ccc(F)c(Cl)c1)C(=O)C1CC1,"inconclusive: 4.11 µM [activator, full curve]",–
CCN(CC)c1ccc2cc(-c3nnc(-c4ccccc4)o3)c(=O)oc2c1,"inconclusive: 6.51 µM [activator, partial curve, poor fit]",–
O=C(O)C1CCCCN1C(=O)c1ccc(S(=O)(=O)N2CCCC2)cc1 (centres undefined),inactive,–
COC(=O)Cc1ccc(NC(=S)NC(C)(C)C)cc1,inactive,–
CCN1C(=O)/C(=C2/Sc3ccc(OC)cc3N2C)SC1=Nc1ccc(OC)cc1,inactive,–
C/C(=N\NC(=O)c1cc2ccccc2cc1O)c1ccccn1,"inconclusive: 7.31 µM [activator, partial curve]",–
N#Cc1c(Cl)cccc1N1CCC(C(N)=O)CC1,inactive,–
CC(C)[C@H](N)C(=O)N1CCC(C(=O)N[C@@H](Cc2ccccc2)C(=O)NCc2ccc(F)cc2)CC1,inactive,–
CCN(CC)S(=O)(=O)c1cccc(C(=O)Nc2cccnc2)c1,inactive,–
CC(Oc1ccc(Br)cc1)C(=O)Nc1ccc(S(=O)(=O)N(C)C2CCN(C)CC2)cc1 (centres undefined),"inconclusive: 25.1 µM [activator, single point]",–
COc1ccc(C(=O)c2cc([N+](=O)[O-])ccc2N2CCCC2)cc1,active: 18.4 µM,–

Compound,Potency,re-replication activation
Cc1nnc(SCC(=O)Nc2sc3c(c2C(N)=O)CCC(C)C3)[nH]c1=O (centres undefined),inactive,–
O=C(CCCCCNC(=O)N1CCn2c1nc1ccccc12)NCCc1ccccc1,inactive,–
O=C(COC(=O)c1ccc(O)cc1)Nc1cccc(S(=O)(=O)N2CCCCC2)c1,"inconclusive: 0.651 µM [activator, partial curve, poor fit]",–
Cc1nnnn1/C(=C\c1ccccc1)C(=O)OCC(=O)NC1CCCCC1,active: 23.1 µM,–
CC1(C)SC(=S)N(/N=C/c2ccc(O)cc2)C1N(O)C(=O)Nc1ccc([N+](=O)[O-])cc1 (centres undefined),inactive,–
Cc1ccc(C(CC(=O)N2CCOCC2)c2ccco2)cc1 (centres undefined),"inconclusive: 29.1 µM [activator, single point]",–
CC(=O)Nc1ccc(NC(=O)CSCc2ccccc2Cl)cc1,"inconclusive: 32.6 µM [activator, single point]",–
Cn1c(=O)[nH]c(=O)c2c1nc(SCCCO)n2CCCc1ccccc1,"inconclusive: 29.1 µM [activator, single point]",–
CCN1CCN(CC(=O)Nc2sc3c(c2C#N)CCC(C)C3)CC1 (centres undefined),"inconclusive: 23.1 µM [activator, single point]",–
CCOc1ccc(N(CC(=O)NCc2ccc(F)cc2)C(=O)c2snc(C(N)=O)c2N)cc1,"inconclusive: 29.1 µM [activator, single point]",–
O=C(c1ccc(F)cc1)c1ccc(CN2C(=O)c3ccccc3C2=O)o1,inactive,–
Cc1nc2ccccc2c(=O)n1NCc1cc(Br)cs1,"inconclusive: 23.1 µM [activator, partial curve, poor fit]",–
Cc1ccc(C(=O)N2CCN(Cc3ccccc3)CC2)cc1S(=O)(=O)N1CCOCC1,inactive,–
CC(=NNC(=O)c1ccncc1)c1cccc(Cl)c1,inactive,–
Cc1cccc(CCNS(=O)(=O)c2ccc(S(=O)(=O)N3CCC(C)CC3)cc2)c1,"inconclusive: 29.1 µM [activator, partial curve, poor fit]",–
Cc1cc(C)c2nc(N(CCCN(C)C)C(=O)c3ccc4c(c3)CCCC4)sc2c1,"inconclusive: 18.4 µM [activator, single point]",–
O=[N+]([O-])c1ccc(NC(=S)N2CCN(S(=O)(=O)c3ccccc3)CC2)cc1,"inconclusive: 29.1 µM [activator, single point]",–
COc1ccc(Nc2ccc3ccccc3c2)cc1,"inconclusive: 18.4 µM [activator, single point]",–
COc1ccc(CN(C)S(=O)(=O)c2nnc(NC(=O)c3cccc(C)c3)s2)cc1OC,"inconclusive: 0.0046 µM [activator, full curve, poor fit]",–
COc1ccc(C2/C=C\CN(C(=O)C3CC3)[C@H](Cc3ccccc3)C(=O)N2Cc2ccc(F)cc2)cc1 (some centres undefined),–,inactive: -0.126% [at 9.22 µM]
Cc1ccc(N/C=C/C(=O)c2ccccc2)cc1C,"inconclusive: 18.4 µM [activator, partial curve, poor fit]",–
CCOC(=O)C1=CN(Cc2ccco2)S(=O)(=O)NC1c1cccc(OC)c1 (centres undefined),"inconclusive: 29.1 µM [activator, partial curve, poor fit]",–
COc1ccc(-c2ccc([C@H]3[C@H]4C=CC[C@@H](C)[C@@H]4C(=O)N3Cc3ccccc3)c(F)c2)cc1C,"inconclusive: 4.61 µM [activator, full curve, poor fit]",–

Compound,Potency,re-replication activation
CC(=O)Oc1ccc(C(=O)Nc2ccc(S(=O)(=O)N3CCOCC3)cc2)cc1,inactive,–
CC(=O)Nc1ccc(OC(=O)c2ccccc2OC(C)=O)cc1,inactive,–
COc1ccc(-c2nnc(OCc3ccccc3)c3ccccc23)cc1,inactive,–
O=C(NNC(=O)c1ccccc1O)c1ccc(NS(=O)(=O)c2ccc(F)cc2)cc1,"inconclusive: 0.206 µM [activator, full curve, poor fit]",–
CN(C)CCn1c2ccccc2c2nc3ccc([N+](=O)[O-])cc3cc21,"inconclusive: 25.9 µM [activator, single point]",–
CCOC(=O)c1ccc(NC(=S)Nc2ccccn2)cc1,"inconclusive: 6.31 µM [activator, single point]",–
COC(=O)c1c(C(=O)OC)c(-c2ccc(OC)cc2)n2c1CS(=O)(=O)C2,inactive,–
O=C(NCCCN1CCN(CCCNC(=O)c2cccc(Cl)c2)CC1)c1cccc(Cl)c1,inactive,–
Fc1ccc(-c2csc3ncnc(Cl)c23)cc1,"inconclusive: 20.6 µM [activator, partial curve, poor fit]",–
O=c1[nH]c(/C=C/c2ccccc2OC(F)F)nc2c1cnn2-c1ccccc1,"inconclusive: 20.6 µM [activator, single point]",–
Cc1cc(C)cc(NC(=O)NC2CCCCCCC2)c1,"inconclusive: 20.6 µM [activator, partial curve, poor fit]",–
O=C(NN=C1CCCC1)c1n[nH]c2c1CCCC2,"inconclusive: 29.1 µM [activator, single point]",–
CCc1nc(N)nc(N)c1-c1ccc(Cl)cc1,"inconclusive: 13.3 µM [activator, partial curve, poor fit] and inconclusive: 164 nM [activator, single point] and inconclusive: 6.51 µM [activator, single point]",–
COc1ccc(-c2c(C)c3cc(O)ccc3oc2=O)cc1,"inconclusive: 13 µM [activator, partial curve, poor fit]",–
O=C(N/N=C1/CC(c2ccccc2)Oc2ccccc21)C1CC1 (centres undefined),"inconclusive: 29.1 µM [activator, partial curve, poor fit]",–
CCOC(=O)c1ccc(NC(=O)c2nn(C)cc2Br)cc1,inactive,–
O=C1c2ccccc2C2=Nc3ccccc3SC(c3cccc(F)c3)C12 (centres undefined),"inconclusive: 23.1 µM [activator, single point]",–
CC(=O)c1cc2c(cc1NS(=O)(=O)c1ccc(C)cc1)OCCO2,"inconclusive: 20.6 µM [activator, single point]",–
COc1ccc(C)cc1Nc1nc(C)nc2c1oc1ccccc12,"inconclusive: 29.1 µM [activator, single point]",–
Fc1ccc(NC(=S)NCc2ccccc2Cl)cc1,"inconclusive: 29.1 µM [activator, single point]",–
COc1cccc(Cn2c(OCC3CCCO3)nc3c2c(=O)n(C)c(=O)n3C)c1 (centres undefined),inactive,–
Cc1cnc(NC(=O)c2cc(S(=O)(=O)N(C)C)ccc2N2CCCC2)s1,"inconclusive: 16.4 µM [activator, single point]",–
O=C(NCC1CCN(Cc2ccc(Cl)cc2)CC1)C1CCCN(c2ncnc3c2nc2n3CCCCC2)C1 (centres undefined),inactive,–

# 17 compounds out of the list, arranged by SMILES length, rising:
Compound,Potency,re-replication activation
Fc1ccc(-c2csc3ncnc(Cl)c23)cc1,"inconclusive: 20.6 µM [activator, partial curve, poor fit]",–
O=C(NN=C1CCCC1)c1n[nH]c2c1CCCC2,"inconclusive: 29.1 µM [activator, single point]",–
CCOC(=O)c1ccc(NC(=S)Nc2ccccn2)cc1,"inconclusive: 6.31 µM [activator, single point]",–
COc1ccc(-c2c(C)c3cc(O)ccc3oc2=O)cc1,"inconclusive: 13 µM [activator, partial curve, poor fit]",–
COc1ccc(C)cc1Nc1nc(C)nc2c1oc1ccccc12,"inconclusive: 29.1 µM [activator, single point]",–
CC(=O)Nc1ccc(OC(=O)c2ccccc2OC(C)=O)cc1,inactive,–
O=C(N/N=C1/CC(c2ccccc2)Oc2ccccc21)C1CC1 (centres undefined),"inconclusive: 29.1 µM [activator, partial curve, poor fit]",–
O=C1c2ccccc2C2=Nc3ccccc3SC(c3cccc(F)c3)C12 (centres undefined),"inconclusive: 23.1 µM [activator, single point]",–
CC(=O)c1cc2c(cc1NS(=O)(=O)c1ccc(C)cc1)OCCO2,"inconclusive: 20.6 µM [activator, single point]",–
CN(C)CCn1c2ccccc2c2nc3ccc([N+](=O)[O-])cc3cc21,"inconclusive: 25.9 µM [activator, single point]",–
Cc1cnc(NC(=O)c2cc(S(=O)(=O)N(C)C)ccc2N2CCCC2)s1,"inconclusive: 16.4 µM [activator, single point]",–
O=c1[nH]c(/C=C/c2ccccc2OC(F)F)nc2c1cnn2-c1ccccc1,"inconclusive: 20.6 µM [activator, single point]",–
COc1cccc(Cn2c(OCC3CCCO3)nc3c2c(=O)n(C)c(=O)n3C)c1 (centres undefined),inactive,–
CC(=O)Oc1ccc(C(=O)Nc2ccc(S(=O)(=O)N3CCOCC3)cc2)cc1,inactive,–
COC(=O)c1c(C(=O)OC)c(-c2ccc(OC)cc2)n2c1CS(=O)(=O)C2,inactive,–
O=C(NCCCN1CCN(CCCNC(=O)c2cccc(Cl)c2)CC1)c1cccc(Cl)c1,inactive,–
O=C(NCC1CCN(Cc2ccc(Cl)cc2)CC1)C1CCCN(c2ncnc3c2nc2n3CCCCC2)C1 (centres undefined),inactive,–

# Source: PubChem BioAssay AID624297 (National Center for Advancing Translational Sciences (NCATS), 2012)
